Test results from patent publication US20150337309.
For part of these data: A negative result means that nothing was seen under these conditions. For part of these data: A weaker result is weaker than the reference pair of the same experiment. For part of these data: Protein sequences can lack the tags named with them. For part of these data: At least one result comes from cells or an extract, where the contact may be indirect. For part of these data: Construct, isoform or probe ends are uncertain for at least one entry.

The chains behind the UniProt entries cited, without tags or fusion partners. Residues count along the entry.
UniProt Q15063, 22-836: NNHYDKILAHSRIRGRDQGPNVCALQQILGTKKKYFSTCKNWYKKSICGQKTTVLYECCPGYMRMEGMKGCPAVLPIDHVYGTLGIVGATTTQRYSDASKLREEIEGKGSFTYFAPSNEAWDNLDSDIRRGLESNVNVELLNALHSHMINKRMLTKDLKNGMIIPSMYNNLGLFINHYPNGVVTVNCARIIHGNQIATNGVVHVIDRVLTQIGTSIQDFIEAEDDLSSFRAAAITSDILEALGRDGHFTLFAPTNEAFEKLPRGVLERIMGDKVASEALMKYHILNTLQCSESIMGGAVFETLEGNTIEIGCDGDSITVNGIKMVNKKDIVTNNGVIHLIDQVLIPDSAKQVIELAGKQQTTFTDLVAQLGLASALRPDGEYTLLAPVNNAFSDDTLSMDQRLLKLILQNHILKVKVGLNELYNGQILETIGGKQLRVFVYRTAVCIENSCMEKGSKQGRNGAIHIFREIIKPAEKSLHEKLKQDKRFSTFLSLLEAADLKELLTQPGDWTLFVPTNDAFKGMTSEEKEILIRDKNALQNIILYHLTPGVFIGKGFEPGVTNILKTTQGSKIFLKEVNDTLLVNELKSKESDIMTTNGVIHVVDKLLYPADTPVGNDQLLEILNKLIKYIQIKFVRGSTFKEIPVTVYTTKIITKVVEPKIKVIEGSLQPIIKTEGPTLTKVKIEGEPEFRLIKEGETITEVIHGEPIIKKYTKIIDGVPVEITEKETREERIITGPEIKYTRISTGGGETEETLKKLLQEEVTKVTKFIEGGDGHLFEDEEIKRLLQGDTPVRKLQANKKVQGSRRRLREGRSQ
UniProt Q62009, 24-838: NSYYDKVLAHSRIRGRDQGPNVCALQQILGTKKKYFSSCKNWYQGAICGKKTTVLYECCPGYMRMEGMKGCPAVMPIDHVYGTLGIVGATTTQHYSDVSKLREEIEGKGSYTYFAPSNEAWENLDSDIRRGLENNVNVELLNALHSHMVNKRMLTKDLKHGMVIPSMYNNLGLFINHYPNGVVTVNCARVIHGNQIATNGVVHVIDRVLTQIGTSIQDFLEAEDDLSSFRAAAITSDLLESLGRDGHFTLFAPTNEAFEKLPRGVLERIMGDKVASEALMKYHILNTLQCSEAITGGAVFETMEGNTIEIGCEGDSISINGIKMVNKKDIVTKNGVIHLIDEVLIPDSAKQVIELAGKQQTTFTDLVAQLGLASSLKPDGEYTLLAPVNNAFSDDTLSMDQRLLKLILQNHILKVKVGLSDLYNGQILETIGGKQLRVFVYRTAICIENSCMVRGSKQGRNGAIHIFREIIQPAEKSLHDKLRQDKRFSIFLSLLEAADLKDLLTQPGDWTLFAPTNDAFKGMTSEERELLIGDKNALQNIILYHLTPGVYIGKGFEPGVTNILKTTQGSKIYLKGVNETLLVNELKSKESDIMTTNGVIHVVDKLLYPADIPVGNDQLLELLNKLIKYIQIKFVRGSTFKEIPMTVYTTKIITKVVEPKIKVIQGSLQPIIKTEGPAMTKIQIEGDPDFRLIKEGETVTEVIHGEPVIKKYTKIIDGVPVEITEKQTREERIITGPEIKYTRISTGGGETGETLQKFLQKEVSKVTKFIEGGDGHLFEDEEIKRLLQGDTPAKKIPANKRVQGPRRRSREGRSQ

Key:
periostin (Homo sapiens) [1] = molecular target: periostin (Homo sapiens) (UniProt Q15063); experiment: pull-down; details: purified recombinant protein, single-stranded DNA
[2] = molecular target: periostin full length (Homo sapiens) (UniProt Q15063); experiment: pull-down; details: BndU at all n [BndU at 6,7,9,14,16,21,22,26,28,31,34,35,44]; biotin-PNDA-3, 4 C; protein in a lysate after overexpression; protein details: GFP fusion (anti-GFP detection), 293T lysate; label: 32P, biotin or Cy3 depending on assay; single-stranded DNA; letters built from the parent sequence and the stated change; variant of clone 8 full length
IgG (Homo sapiens) = experiment: filter binding; details: BndU at all n [BndU at 6,7,9,14,16,21,22,26,28,31,34,35,44]; specificity control; purified native protein; protein details: Sigma; label: 32P, biotin or Cy3 depending on assay; single-stranded DNA; letters built from the parent sequence and the stated change; variant of clone 8 full length
[3] = molecular target: T1, betaIG-H3 (TGFBI) (Homo sapiens) (UniProt Q15582); experiment: filter binding; details: BndU at all n [BndU at 6,7,9,14,16,21,22,26,28,31,34,35,44]; binds at a low ratio; purified recombinant protein; protein details: R&D Systems; label: 32P, biotin or Cy3 depending on assay; single-stranded DNA; letters built from the parent sequence and the stated change; variant of clone 8 full length
T1 sequence (looked up, limits assumed): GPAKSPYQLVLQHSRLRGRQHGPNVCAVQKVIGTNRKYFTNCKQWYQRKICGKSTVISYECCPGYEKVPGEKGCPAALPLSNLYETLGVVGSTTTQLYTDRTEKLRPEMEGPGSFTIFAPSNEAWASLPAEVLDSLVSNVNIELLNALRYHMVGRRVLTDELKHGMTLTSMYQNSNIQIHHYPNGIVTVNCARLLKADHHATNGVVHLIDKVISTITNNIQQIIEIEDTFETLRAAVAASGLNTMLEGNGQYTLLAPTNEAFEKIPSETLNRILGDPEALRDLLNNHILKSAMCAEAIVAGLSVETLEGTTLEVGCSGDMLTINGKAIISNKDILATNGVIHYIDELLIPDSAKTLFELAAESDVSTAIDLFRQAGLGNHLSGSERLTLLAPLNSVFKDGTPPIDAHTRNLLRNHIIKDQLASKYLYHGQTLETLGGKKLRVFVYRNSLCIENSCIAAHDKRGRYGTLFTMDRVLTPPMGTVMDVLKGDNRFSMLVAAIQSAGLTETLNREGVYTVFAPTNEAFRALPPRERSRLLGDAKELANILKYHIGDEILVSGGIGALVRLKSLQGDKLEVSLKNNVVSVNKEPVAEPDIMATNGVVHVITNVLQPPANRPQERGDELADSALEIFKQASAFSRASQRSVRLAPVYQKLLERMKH

periostin (Mus musculus) = periostin (Mus musculus) (UniProt Q62009); experiment: filter binding; details: BndU at all n [BndU at 6,7,9,14,16,21,22,26,28,31,34,35,44]; purified recombinant protein; label: 32P, biotin or Cy3 depending on assay; single-stranded DNA; letters built from the parent sequence and the stated change; variant of clone 8 full length
periostin on 4T1 cells = periostin on 4T1 cells (UniProt Q62009); experiment: flow cytometry; details: protein on the cell surface, protein details: endogenous, 4T1 breast cancer cells, single-stranded DNA
periostin (Homo sapiens) [4] = molecular target: periostin (Homo sapiens) (UniProt Q15063); experiment: competition with a labelled probe; details: BndU at all n [n positions 7,12,15,28,39 = modified dU]; does not compete with labelled PNDA-3; unlabelled PNDA-3 does; purified recombinant protein; single-stranded DNA

Sequence | binding result (periostin (Homo sapiens) [1]; BndU at all n [BndU at 6,7,9,14,16,21,22,26,28,31,34,35,44], biotin-PNDA-3, 10 nM periostin in 10% FBS, dose dependent, label: 32P, biotin or Cy3 depending on assay, letters built from the parent sequence and the stated change, variant of clone 8 full length) | binding result [2] | binding result (IgG (Homo sapiens)) | binding result [3] | binding result (periostin (Mus musculus)) | binding result (periostin on 4T1 cells; BndU at all n [BndU at 6,7,9,14,16,21,22,26,28,31,34,35,44], 100 nM Cy3-PNDA-3, 4 C, no binding above background to periostin-negative MCF7, label: 32P, biotin or Cy3 depending on assay, letters built from the parent sequence and the stated change, variant of clone 8 full length) | binding result (periostin (Homo sapiens) [1]; BndU at all n [n positions 7,12,15,28,39 = modified dU], control aptamer does not detect periostin in serum) | binding result (periostin on 4T1 cells; BndU at all n [n positions 7,12,15,28,39 = modified dU], control aptamer on 4T1 cells) | binding result (periostin (Homo sapiens) [4])
ACGAGTTGTCGCATGTGCGGTTCAGTCTGGTCCTTCAGCACCGTACAACAA [PNDA-3] | binds | binds | no binding | binds more weakly | binds | binds | – | – | –
ACGAGGTACGGTGCTGAAGGACCAGACTGAACCGCACATGCGACAAAACAA [control aptamer CTL] | – | – | – | – | – | – | no binding | no binding | no binding
